Experimental data as given in the supplement of paper PMC10849652.
This is one part of the list.

Protein sequences, listed by entry. Tags and fused reporters are not part of them. Lines headed by an entry give the natural chain unless they say otherwise; changes in a name come on top.
UniProt Q2NKX9: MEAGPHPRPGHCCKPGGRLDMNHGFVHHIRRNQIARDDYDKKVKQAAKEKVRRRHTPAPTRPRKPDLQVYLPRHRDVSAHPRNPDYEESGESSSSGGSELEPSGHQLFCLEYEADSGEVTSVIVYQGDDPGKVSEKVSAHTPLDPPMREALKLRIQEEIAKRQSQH
UniProt Q8N5I9: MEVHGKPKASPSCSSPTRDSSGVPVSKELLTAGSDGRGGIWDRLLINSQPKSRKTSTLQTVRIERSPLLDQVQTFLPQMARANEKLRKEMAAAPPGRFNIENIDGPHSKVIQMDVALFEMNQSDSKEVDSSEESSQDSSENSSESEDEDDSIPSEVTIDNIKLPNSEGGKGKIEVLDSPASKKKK
UniProt O43852: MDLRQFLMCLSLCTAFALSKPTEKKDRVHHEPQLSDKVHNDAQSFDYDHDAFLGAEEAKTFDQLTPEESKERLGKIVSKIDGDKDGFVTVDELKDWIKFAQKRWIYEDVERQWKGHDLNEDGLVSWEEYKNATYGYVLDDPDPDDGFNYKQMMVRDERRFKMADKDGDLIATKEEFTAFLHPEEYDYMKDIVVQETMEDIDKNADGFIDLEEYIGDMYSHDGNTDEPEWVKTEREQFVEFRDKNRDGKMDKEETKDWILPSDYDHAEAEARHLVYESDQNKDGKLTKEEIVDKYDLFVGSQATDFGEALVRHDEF
UniProt P27824: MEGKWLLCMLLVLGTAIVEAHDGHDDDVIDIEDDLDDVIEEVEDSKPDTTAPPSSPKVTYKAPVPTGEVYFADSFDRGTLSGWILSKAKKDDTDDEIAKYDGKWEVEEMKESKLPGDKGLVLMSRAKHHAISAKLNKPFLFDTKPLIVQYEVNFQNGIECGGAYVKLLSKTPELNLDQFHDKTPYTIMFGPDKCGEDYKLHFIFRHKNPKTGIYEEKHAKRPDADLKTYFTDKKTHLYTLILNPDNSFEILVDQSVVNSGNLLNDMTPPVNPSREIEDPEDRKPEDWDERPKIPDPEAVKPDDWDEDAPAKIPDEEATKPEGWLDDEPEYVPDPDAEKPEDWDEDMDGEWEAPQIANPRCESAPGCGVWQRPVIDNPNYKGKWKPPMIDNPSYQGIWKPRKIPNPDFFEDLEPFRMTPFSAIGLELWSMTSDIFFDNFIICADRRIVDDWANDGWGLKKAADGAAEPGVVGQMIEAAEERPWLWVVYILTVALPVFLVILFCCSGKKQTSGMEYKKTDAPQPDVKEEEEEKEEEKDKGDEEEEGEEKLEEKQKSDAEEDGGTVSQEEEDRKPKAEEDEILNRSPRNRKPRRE
UniProt P07384: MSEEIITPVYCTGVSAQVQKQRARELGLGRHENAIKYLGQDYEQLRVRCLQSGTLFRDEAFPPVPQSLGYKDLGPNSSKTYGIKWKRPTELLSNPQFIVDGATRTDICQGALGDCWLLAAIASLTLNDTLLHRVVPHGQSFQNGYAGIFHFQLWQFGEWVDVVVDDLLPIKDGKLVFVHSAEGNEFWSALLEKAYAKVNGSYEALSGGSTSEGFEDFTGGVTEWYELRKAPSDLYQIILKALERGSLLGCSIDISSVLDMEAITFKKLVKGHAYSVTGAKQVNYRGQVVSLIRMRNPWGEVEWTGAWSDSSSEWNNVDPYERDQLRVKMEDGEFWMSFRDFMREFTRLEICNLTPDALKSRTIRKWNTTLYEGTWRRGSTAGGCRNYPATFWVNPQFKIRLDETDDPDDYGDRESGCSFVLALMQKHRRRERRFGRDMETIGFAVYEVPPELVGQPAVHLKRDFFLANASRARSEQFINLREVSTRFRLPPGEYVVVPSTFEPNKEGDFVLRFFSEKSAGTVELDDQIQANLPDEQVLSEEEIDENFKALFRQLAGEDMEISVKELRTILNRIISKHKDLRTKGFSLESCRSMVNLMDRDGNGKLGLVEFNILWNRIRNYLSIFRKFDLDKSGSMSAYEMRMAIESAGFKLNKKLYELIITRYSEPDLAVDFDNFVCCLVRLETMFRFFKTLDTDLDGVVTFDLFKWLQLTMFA
UniProt Q96GV9: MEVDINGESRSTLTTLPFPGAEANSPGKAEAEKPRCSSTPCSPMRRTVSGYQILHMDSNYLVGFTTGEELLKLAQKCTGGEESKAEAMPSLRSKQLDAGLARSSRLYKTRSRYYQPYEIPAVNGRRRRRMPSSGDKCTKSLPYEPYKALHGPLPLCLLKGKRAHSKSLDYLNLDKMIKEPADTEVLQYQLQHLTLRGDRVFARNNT
UniProt Q8WUR7: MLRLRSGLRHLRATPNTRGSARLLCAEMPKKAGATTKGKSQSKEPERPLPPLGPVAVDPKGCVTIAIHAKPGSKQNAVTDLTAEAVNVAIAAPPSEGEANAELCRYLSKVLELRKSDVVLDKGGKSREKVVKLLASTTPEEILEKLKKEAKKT
UniProt Q8N1A6: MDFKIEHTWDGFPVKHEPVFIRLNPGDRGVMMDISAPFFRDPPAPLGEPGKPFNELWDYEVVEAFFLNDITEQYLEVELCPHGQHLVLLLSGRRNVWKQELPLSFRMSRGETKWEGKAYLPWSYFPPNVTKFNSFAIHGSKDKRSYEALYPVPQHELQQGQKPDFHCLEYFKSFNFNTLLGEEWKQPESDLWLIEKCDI
UniProt Q14012: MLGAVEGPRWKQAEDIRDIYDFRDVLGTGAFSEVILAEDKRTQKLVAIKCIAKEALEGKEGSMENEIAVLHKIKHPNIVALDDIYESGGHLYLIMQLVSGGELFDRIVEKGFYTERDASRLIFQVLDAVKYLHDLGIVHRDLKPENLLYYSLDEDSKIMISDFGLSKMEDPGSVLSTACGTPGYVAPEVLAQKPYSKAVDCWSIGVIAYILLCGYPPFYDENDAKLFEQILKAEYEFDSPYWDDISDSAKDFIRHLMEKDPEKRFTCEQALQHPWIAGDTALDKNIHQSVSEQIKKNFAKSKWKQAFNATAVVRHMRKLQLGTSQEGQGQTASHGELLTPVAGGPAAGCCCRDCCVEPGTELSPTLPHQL
UniProt Q504U0: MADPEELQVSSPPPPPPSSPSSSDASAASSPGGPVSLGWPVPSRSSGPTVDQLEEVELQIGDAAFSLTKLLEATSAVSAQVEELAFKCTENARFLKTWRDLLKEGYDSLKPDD
UniProt Q9NX04: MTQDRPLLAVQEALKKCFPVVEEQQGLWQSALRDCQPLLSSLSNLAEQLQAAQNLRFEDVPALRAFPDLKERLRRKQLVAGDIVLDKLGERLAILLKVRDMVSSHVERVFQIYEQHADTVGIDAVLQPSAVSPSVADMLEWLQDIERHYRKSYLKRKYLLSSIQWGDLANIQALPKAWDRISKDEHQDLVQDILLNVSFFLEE
UniProt Q9BSJ5: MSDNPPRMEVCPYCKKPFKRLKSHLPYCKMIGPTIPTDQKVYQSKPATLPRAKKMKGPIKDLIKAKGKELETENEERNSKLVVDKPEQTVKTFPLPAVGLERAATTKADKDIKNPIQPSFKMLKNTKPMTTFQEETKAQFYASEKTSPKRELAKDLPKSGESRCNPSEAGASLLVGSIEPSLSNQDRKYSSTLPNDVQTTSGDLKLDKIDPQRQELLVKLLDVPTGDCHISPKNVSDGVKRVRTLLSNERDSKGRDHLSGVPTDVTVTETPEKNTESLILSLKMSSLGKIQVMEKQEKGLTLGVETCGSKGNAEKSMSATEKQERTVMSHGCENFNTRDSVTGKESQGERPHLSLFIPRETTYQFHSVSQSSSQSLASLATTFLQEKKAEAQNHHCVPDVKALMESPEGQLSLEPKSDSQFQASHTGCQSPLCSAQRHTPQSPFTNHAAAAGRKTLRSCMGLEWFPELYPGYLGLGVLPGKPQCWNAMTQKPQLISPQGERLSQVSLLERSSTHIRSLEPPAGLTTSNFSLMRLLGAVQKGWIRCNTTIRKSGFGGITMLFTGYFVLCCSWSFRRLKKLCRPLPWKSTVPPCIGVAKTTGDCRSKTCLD
UniProt Q9NSK7: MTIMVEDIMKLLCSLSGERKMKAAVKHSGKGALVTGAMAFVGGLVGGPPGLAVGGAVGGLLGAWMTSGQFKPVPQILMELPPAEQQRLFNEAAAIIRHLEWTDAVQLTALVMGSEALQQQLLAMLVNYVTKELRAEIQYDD
UniProt Q86VG3: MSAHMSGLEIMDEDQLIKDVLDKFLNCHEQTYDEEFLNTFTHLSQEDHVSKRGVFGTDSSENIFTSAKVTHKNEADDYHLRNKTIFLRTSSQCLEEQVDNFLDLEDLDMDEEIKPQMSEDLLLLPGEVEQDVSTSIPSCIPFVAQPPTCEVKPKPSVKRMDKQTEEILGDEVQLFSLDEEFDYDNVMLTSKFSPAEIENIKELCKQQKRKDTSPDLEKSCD
UniProt Q9BUW7: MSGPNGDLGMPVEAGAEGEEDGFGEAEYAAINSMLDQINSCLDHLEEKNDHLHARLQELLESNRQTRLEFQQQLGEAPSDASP
UniProt Q96LT7: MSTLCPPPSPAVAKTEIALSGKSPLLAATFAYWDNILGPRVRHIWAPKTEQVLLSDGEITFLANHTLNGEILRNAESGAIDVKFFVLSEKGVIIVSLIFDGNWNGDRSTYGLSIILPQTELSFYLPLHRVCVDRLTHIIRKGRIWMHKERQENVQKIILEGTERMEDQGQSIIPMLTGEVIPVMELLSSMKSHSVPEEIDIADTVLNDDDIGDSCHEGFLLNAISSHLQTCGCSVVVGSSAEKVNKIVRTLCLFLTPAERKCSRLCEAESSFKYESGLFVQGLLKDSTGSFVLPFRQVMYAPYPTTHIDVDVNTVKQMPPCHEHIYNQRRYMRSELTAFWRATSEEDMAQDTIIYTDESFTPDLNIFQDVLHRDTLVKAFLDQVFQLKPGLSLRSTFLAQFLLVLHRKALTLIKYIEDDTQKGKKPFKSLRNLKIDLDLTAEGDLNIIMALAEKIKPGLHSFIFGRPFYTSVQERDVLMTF
UniProt Q9BRD0: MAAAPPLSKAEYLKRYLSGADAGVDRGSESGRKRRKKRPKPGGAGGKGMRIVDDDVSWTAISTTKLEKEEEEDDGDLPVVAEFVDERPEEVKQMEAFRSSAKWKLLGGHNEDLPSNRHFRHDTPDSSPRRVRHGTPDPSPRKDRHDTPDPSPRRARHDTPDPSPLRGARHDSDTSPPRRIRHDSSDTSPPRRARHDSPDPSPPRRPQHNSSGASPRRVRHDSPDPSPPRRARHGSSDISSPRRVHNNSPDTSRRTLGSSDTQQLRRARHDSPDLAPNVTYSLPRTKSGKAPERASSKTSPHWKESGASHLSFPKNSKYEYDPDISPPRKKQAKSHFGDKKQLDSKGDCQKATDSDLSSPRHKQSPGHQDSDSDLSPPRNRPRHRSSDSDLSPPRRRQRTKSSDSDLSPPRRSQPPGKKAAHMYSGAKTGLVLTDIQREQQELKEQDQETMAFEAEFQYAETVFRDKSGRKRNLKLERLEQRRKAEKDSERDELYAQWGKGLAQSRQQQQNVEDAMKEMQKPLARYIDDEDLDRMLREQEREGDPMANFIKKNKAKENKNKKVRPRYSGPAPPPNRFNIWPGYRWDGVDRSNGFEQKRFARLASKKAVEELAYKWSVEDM
UniProt Q5SQH8: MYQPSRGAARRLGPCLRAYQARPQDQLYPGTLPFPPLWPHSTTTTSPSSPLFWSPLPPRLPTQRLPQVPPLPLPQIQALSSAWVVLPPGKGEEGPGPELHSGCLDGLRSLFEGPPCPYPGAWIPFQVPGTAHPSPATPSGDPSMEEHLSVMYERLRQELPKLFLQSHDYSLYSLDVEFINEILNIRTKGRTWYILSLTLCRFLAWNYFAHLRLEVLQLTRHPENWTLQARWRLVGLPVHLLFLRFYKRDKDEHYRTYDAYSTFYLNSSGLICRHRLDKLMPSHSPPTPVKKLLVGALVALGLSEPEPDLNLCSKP
UniProt Q9NWQ9: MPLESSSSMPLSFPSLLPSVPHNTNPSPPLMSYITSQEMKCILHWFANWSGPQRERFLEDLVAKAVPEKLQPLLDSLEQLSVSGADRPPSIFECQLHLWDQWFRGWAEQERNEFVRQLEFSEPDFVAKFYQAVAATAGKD
UniProt Q99622: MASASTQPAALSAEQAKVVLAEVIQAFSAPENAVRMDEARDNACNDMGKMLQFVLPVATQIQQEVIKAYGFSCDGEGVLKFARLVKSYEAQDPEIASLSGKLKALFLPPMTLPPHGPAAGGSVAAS
UniProt Q96MH7: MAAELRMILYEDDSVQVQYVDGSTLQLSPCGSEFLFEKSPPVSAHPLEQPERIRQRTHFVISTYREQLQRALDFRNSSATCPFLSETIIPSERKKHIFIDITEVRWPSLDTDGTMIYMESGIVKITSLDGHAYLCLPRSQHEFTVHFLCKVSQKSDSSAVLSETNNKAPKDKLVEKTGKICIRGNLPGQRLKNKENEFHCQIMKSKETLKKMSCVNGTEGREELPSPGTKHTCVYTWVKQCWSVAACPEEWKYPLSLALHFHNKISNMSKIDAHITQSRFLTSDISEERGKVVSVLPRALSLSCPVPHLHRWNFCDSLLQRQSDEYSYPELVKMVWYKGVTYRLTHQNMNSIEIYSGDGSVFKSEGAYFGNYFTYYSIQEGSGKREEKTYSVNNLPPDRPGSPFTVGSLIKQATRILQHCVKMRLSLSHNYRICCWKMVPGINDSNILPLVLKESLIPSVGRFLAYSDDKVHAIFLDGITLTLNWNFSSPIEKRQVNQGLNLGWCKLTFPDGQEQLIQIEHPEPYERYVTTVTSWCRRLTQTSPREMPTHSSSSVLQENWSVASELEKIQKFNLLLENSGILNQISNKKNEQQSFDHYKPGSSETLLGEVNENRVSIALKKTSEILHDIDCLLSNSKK

Experiments:
Experiment in all cases: log2 fold change, soluble protein after heating vs DMSO (PISA); higher = thermal stabilisation; K562 lysate, 10 uM; active = over 0.2 and 3.5 SD of the protein, either way, in both replicates (recomputed)
[1] = compound: C1=CC=C(C=C1)[C@H](COC2=CC3=C(C=C2)NC(=O)N3)NC(=O)C4=CC=CN(C4=O)CC5=CC(=C(C=C5)F)F
Outline: (§1)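 Soluble protein was defined as the supernatant remaining after 21,000xg for 90 min, following pooling of heated aliquots and adjustment to 0.5% NP-40 at 4°C. Before that, crude K562 extract at 1 mg/mL protein in PBS pH 7.4 with 1 mM MgCl2 was treated with 10 μM compound for 30 min and heated for 3 min across 48°C-58°C. Quantification used TMTpro 16plex LC-MS/MS with channel sums equalised, and values are log-two fold changes in thermal stability relative to solvent controls from duplicates.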

[2] = compound: CC1=C(SC2=C1C(=N[C@H](C3=NN=C(N32)C)CC(=O)N)C4=CC=C(C=C4)Cl)C
Outline: as §1

[3] = compound: CC1=C2C(=CC=C1)N=C(N(C2=O)C3=CC=CC=C3C)CN4C=NC5=C(N=CN=C54)N
Outline: as §1

[4] = compound: Cc1sc2c(c1C)C(c1ccc(Cl)cc1)=N[C@@H](CC(=O)OC(C)(C)C)c1nnc(C)n1-2
Outline: as §1

[5] = compound: c1ccc([C@@H]2C[C@H]2NC2CCNCC2)cc1
Outline: as §1

Measured: log2 fold change

C2orf68 (UniProt Q2NKX9)
inactive: [1] 0.09 | [2] 0.044 | [3] -0.055 | [4] 0.042 | [5] 0.01

C12orf45 (UniProt Q8N5I9)
inactive: [1] 0.074 | [2] 0 | [3] -0.007 | [4] -0.008 | [5] -0.122

CALU isoform 3 (UniProt O43852)
inactive: [1] 0.045 | [2] 0.002 | [3] -0.044 | [4] -0.032 | [5] -0.057

CANX isoform 2 (UniProt P27824)
inactive: [1] 0.05 | [2] -0.022 | [3] -0.005 | [4] -0.027 | [5] -0.046

C2CD5 isoform 3 (UniProt Q86YS7)
inactive: [1] 0.015 | [2] 0.059 | [3] 0.014 | [4] -0.009 | [5] -0.169

CAPN1 (UniProt P07384)
inactive: [1] 0.047 | [2] 0.008 | [3] 0.014 | [4] 0.015 | [5] -0.022

C16orf58 (UniProt Q96GQ5)
inactive: [1] -0.061 | [2] -0.007 | [3] 0.057 | [4] -0.103 | [5] -0.005

C5orf30 (UniProt Q96GV9)
inactive: [1] -0.166 | [2] 0.035 | [3] -0.068 | [4] -0.018 | [5] 0.064

CALR (UniProt P27797)
inactive: [1] 0.03 | [2] -0.018 | [3] -0.026 | [4] 0.011 | [5] 0.06

CAPZA2 (UniProt P47755)
inactive: [1] 0.001 | [2] -0.015 | [3] -0.016 | [4] 0.014 | [5] 0.027

CAPG (UniProt P40121)
inactive: [1] 0.013 | [2] 0.004 | [3] 0.022 | [4] -0.033 | [5] 0.008

C15orf40 (UniProt Q8WUR7)
inactive: [1] 0.027 | [2] -0.067 | [3] -0.009 | [4] -0.025 | [5] -0.031

CAMSAP1 isoform 3 (UniProt Q5T5Y3)
inactive: [1] -0.012 | [2] -0.006 | [3] 0.022 | [4] 0.019 | [5] 0.082

C8orf37 (UniProt Q96NL8)
inactive: [1] 0.072 | [2] -0.08 | [3] -0.094 | [4] -0.008 | [5] 0.141

C1D (UniProt Q13901)
inactive: [1] 0.03 | [2] -0.043 | [3] 0.078 | [4] -0.069 | [5] -0.014

C11orf98 (UniProt E9PRG8)
inactive: [1] 0.015 | [2] 0.018 | [3] 0.016 | [4] -0.021 | [5] -0.038

C11orf54 (UniProt Q9H0W9)
inactive: [1] 0.015 | [2] -0.016 | [3] -0.028 | [4] -0.024 | [5] -0.016

C4orf33 (UniProt Q8N1A6)
inactive: [1] -0.038 | [2] 0.044 | [3] -0.019 | [4] -0.093 | [5] -0.031

Three records picked at random from those above, as already listed:
C1D (UniProt Q13901)
inactive: [1] 0.03 | [2] -0.043 | [3] 0.078 | [4] -0.069 | [5] -0.014

C11orf98 (UniProt E9PRG8)
inactive: [1] 0.015 | [2] 0.018 | [3] 0.016 | [4] -0.021 | [5] -0.038

CAMSAP1 isoform 3 (UniProt Q5T5Y3)
inactive: [1] -0.012 | [2] -0.006 | [3] 0.022 | [4] 0.019 | [5] 0.082

Remaining list, next part:

CAMK1 (UniProt Q14012)
inactive: [1] 0.096 | [2] 0.014 | [3] -0.007 | [4] 0.026 | [5] -0.047

C3orf33 (UniProt Q6P1S2)
inactive: [1] 0.074 | [2] 0.143 | [3] -0.386 | [4] -0.03 | [5] -0.226

CAPN15 (UniProt O75808)
inactive: [1] -0.047 | [2] 0.063 | [3] -0.017 | [4] -0.011 | [5] 0.056

C19orf54 (UniProt Q5BKX5)
inactive: [1] 0.04 | [2] 0.102 | [3] -0.007 | [4] 0.033 | [5] 0.043

C1orf159 isoform 4 (UniProt Q96HA4)
inactive: [4] -0.024 | [5] -0.055

C1orf131 isoform 5 (UniProt Q8NDD1)
inactive: [3] 0.096 | [4] -0.009 | [5] -0.108

CAD (UniProt H7BZB3)
inactive: [3] -0.011 | [5] -0.003

C4orf46 (UniProt Q504U0)
inactive: [4] 0.082

C2CD2 (UniProt Q9Y426)
inactive: [1] -0.07 | [2] 0.157 | [4] -0.105 | [5] 0.086

C11orf24 (UniProt Q96F05)
inactive: [5] -0.005

CA1 (UniProt E5RIF9)
inactive: [5] 0.18

C3AR1 (UniProt Q16581)
inactive: [1] 0.121 | [2] 0.024 | [5] -0.083

C1orf109 (UniProt Q9NX04)
inactive: [4] -0.236

C17orf80 (UniProt Q9BSJ5)
inactive: [3] 0.058 | [5] -0.126

CALCOCO2 isoform 5 (UniProt Q13137)
inactive: [5] -0.028

CACNA1C isoform 2 (UniProt Q13936)
inactive: [5] -0.592

CANX (UniProt D6RHJ3)
inactive: [3] 0.072

C2orf88 (UniProt Q9BSF0)
inactive: [5] 0.013

C4BPA (UniProt P04003)
inactive: [3] -0.096 | [4] 0.085 | [5] -0.01

CAMSAP3 isoform 2 (UniProt Q9P1Y5)
inactive: [3] -0.03

CAP1 (UniProt Q5T0R8)
inactive: [5] 0.05

CAMKMT (UniProt Q7Z624)
inactive: [4] -0.111

C19orf12 (UniProt Q9NSK7)
inactive: [4] 0.085

C6orf62 (UniProt Q9GZU0)
inactive: [3] 0.107 | [4] 0.043 | [5] 0.079

CAPN1 (UniProt E9PLX0)
inactive: [3] 0.206 | [5] -0.013

C1orf226 isoform 2 (UniProt A1L170)
inactive: [3] -0.052

C11orf74 (UniProt Q86VG3)
inactive: [3] 0.005 | [4] 0.065

CAPNS1 (UniProt K7ES78)
inactive: [3] -0.094 | [4] -0.216

CAP1 isoform 2 (UniProt Q01518)
inactive: [1] 0.058 | [2] 0.044 | [4] 0.02 | [5] -0.002

C12orf60 (UniProt Q5U649)
inactive: [3] 0 | [4] 0.128

C9orf16 (UniProt Q9BUW7)
inactive: [3] -0.069 | [4] 0.093 | [5] -0.039

CACUL1 (UniProt Q86Y37)
inactive: [3] -0.046 | [4] 0.088 | [5] 0.111

C1GALT1 (UniProt Q9NS00)
inactive: [3] 0.069 | [4] 0.028 | [5] 0.075

C9orf72 (UniProt Q96LT7)
inactive: [1] -0.012 | [2] 0.049 | [4] -0.028 | [5] 0.002

C1RL (UniProt Q9NZP8)
inactive: [5] 0.057

C19orf57 (UniProt Q0VDD7)
inactive: [3] -0.174 | [4] -0.007 | [5] 0.046

C15orf39 (UniProt Q6ZRI6)
inactive: [1] -0.095 | [2] 0.049 | [4] 0.032 | [5] 0.161

BUD13 (UniProt Q9BRD0)
inactive: [1] -0.037 | [2] 0.068 | [4] -0.162 | [5] 0.029

CAMSAP2 (UniProt Q08AD1)
inactive: [3] 0.013 | [4] 0.042 | [5] -0.032

C6orf136 isoform 4 (UniProt Q5SQH8)
inactive: [3] -0.198 | [4] -0.059

C14orf119 (UniProt Q9NWQ9)
inactive: [5] 0.137

C17orf53 (UniProt Q8N3J3)
inactive: [4] -0.085

C12orf57 (UniProt Q99622)
inactive: [3] 0.147 | [4] 0.325

C5orf34 (UniProt Q96MH7)
inactive: [3] 0.151 | [4] -0.091
